No constants are given. Whether binding was seen depends on the method and setting. In cells and extracts the contact can be indirect. Some entries that bind do so weakly or less than the wild type.
Molecular target: Epitope-tagged Nav1.7 (voltage-gated sodium channel Nav1.7, TAP-tagged) (mouse) (UniProt Q62205)
Test: co-IP

Protein sequences, listed by entry. Tags and fused reporters are not part of them.
UniProt Q62205: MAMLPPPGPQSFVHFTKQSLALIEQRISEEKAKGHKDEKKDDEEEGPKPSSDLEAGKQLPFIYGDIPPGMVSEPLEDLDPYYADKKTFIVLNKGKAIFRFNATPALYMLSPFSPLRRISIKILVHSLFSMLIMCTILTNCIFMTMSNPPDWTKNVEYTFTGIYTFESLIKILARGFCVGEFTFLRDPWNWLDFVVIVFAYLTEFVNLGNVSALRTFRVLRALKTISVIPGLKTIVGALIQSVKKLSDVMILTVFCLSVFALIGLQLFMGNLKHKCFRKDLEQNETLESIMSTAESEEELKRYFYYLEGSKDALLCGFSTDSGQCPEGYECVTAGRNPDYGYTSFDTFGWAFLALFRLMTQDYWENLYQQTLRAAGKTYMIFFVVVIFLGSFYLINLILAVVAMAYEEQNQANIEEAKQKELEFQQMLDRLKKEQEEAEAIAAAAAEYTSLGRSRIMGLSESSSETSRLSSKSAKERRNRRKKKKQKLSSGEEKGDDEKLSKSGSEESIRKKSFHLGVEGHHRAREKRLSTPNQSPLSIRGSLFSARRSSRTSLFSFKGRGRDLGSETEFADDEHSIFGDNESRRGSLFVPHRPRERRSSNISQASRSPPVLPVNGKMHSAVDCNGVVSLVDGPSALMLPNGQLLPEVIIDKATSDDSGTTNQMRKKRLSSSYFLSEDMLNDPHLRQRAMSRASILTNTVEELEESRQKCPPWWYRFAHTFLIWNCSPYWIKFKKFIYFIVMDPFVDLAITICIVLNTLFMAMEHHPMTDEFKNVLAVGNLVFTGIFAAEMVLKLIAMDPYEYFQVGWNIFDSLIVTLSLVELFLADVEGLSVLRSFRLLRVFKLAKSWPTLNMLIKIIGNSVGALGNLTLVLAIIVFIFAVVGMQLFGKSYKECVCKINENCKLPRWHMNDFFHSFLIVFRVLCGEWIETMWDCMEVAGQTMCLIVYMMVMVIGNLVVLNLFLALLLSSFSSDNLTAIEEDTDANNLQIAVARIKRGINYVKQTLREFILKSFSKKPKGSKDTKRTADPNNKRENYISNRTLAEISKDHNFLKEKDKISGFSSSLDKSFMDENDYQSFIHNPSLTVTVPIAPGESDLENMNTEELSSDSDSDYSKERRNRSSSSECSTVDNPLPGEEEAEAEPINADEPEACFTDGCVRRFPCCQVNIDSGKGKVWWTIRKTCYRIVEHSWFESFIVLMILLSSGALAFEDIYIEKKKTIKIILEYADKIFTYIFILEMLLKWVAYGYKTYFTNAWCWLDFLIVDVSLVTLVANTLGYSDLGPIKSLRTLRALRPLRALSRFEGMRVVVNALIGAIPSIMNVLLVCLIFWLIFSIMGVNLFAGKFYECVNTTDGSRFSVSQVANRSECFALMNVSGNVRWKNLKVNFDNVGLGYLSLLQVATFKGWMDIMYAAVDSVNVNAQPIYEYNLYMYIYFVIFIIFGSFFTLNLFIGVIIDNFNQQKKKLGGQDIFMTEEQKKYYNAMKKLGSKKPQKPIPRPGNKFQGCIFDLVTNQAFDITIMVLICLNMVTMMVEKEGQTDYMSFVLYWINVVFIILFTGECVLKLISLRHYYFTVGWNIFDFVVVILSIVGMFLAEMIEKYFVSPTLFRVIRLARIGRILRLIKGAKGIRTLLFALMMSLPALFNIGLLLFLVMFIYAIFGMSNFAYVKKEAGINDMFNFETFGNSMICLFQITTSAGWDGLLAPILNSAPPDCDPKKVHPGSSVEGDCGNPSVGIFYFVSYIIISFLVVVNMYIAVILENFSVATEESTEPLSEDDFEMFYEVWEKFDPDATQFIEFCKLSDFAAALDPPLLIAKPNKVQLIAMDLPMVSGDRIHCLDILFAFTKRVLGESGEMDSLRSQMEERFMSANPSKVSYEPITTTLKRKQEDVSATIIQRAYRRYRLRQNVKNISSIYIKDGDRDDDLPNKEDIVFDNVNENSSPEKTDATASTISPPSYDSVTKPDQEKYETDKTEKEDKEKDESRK

binding: binds
B1: Gprin1 (protein, UniProt Q3UNH4 1-932)
chain: MRDCCSSPKAIPAPPRHALDQSLGMDPRHTSSSGAAEGASCSERPAGSLACPSPNCSPLPETPRAHGALTSDNSGTTLFGKPEPMSSAEATPTASEIRNPVFSGKMDGNSLKQADSTSTRKEEAGSLRNEESMLKGKAEPMIYGKGEPGTVGRVDCTASGAENSGSLGKVDMPCSSKVDIVSPGGDNAGSLRKVETISSGKMDPKTENVMHSRRERPGSTGEGDLVSLRENDMKPPDNTDSASTKKTDPEFSGKLTPGSSGKTELVSSVTVAPVTSENVNPVCSGGAGPAAVGNSETLSSVKKDPQLLGKKEAVSSGEGGSVSVRMAETVSARQPEGMFPAKTDSTSSNSTGPSGRADPVSLRNSELVSPVKPERLSSGQAERVSLVKTETLSSGKEDPRSSRRVDHTTVTGNMQTSQKGNPESSGKTDLGSSSSGDTRSLGTWGSLSAAKAEVTEGKGDPQPWKKASLPASEKTDPLASSKAGSASQGKAETVSPGEVDAMTLGKTVPTSSGKTALVSPGKVDLMTSERAEGIPELQASEKGNPVNSTRVDTGATGSTEPKSGVKVITQIPGATSPGKVETPSLQKEQPQLSEKTDPSRKVDPPTTVEPVSLGKADSASPSPRKAESQTSAKTVPQAPDKATSSLRQSDGTPYSSAQPQRDTRSIGSLPEREPSASTSQKDLAAAAAQKSPSAEAAAPPPGPRTRDNFTKAPSWDAGAPPPREDAGTQAGAQACVSVAVSPMSPQDGAGGPAFSFQAAPRAPSPAPRPPSRRDAGLQVSLGAAETRSVATGPMTPQAAAPPAVPPVFPEVRVRPGSVLAAALAPQEATEPVRDVSWDEKGMTWEVYGASMEVEVLGMAIQKHLERQIEEHGRQGAPAPAPPPAVRAGPGRAGSVRTAPAEGAAKRPPGLFRALLQSVRRPRCCSRAGPTAE
